Consider 67 compounds from PubChem BioAssay AID662 (National Center for Advancing Translational Sciences (NCATS), 2007).

The list shows a part of the results. Further columns of the screen follow, without active or inactive calls. The list favours compounds with an active or inconclusive main result. Words in brackets tell the shape of the fitted curve; partial curves, single points and poor fits give uncertain potencies.

The nature of the assay: Cell signaling CRE-BLA (Fsk stim). Particulars: CHO CRE-bla reporter (cAMP response element driving beta-lactamase), forskolin EC10, beta-lactamase ratio; measured here: 460 nm blue channel. An outline of the steps: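 Modulation of forskolin-driven signalling is measured in CHO cells carrying a CRE-controlled beta-lactamase reporter. Cells are stimulated with EC10 NKH 477 in the presence of titrated compound for 3 h at 37 °C, then loaded with CCF4 for 2 h at room temperature.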
The term AC50 denotes the midpoint of the concentration-response curve, whichever way the signal moves. Regarding `O=C(c1ccccc1)c1cccn1CC(=O)N1CCN(c2ccc(F)cc2)CC1`, the AC50 was 0.00398 µM [falling, full curve].
`NCCCCCc1nnc(SCC(=O)Nc2cccc(Cl)c2)o1`: the AC50 was 0.126 µM [rising, single point].
For `N#Cc1ccccc1OCC(=O)Nc1c(C(=O)C2CC2)oc2ccccc12` the value was 3.16 µM [rising, full curve]; for `O=C(Nc1nnc(Cc2ccccc2)s1)c1cccs1`, 10 µM [rising, partial curve].
For `O=c1ccc(-c2ccccc2)n[nH]1` the value was 0.0631 µM [rising, partial curve, poor fit]; for `COc1ccc(-c2nnc(SCC(=O)N3CCc4ccccc4C3)o2)cc1`, 5.01 µM [falling, single point]; for `Cc1ccc(C)c2[nH]c(=O)c(CN(Cc3ccco3)C(=O)Nc3ccccc3)cc12`, 5.01 µM [falling, partial curve, poor fit].
For `CCNc1cc2n(c(=O)n1)CCc1cc(OC)c(OC)cc1-2` the value was 10 µM [rising, partial curve].
As to `COCCn1c(=O)c(-c2cc(F)cc(F)c2)nc2cncnc21`, the AC50 was 12.6 µM [rising, partial curve].
`CCc1nnc(NC(=O)CSc2nnc(CNc3ccc(F)cc3)n2C2CCCCC2)s1`: the AC50 is 10 µM [falling, single point].
Take `COc1ccc(S(=O)(=O)N(Cc2ccccc2)Cc2nc(-c3ccccc3)no2)cc1`: the AC50 was 15.8 µM [falling, partial curve].
Then `COc1ccc(NC(=O)CCc2nc(-c3ccccc3F)no2)cc1`, with 0.501 µM [falling, full curve].
For `CCCc1c(C)c2ccccc2[nH]c1=O` the value was 10 µM [rising, partial curve]; for `O=C(c1ccncc1)N1CCC2(CCCN(C(c3ccccc3)c3ccccc3)C2)CC1`, 12.6 µM [rising, partial curve].
With `O=C(Oc1cccnc1)c1ccc(Cl)c(Cl)c1`, the half-maximal activity concentration (AC50) was 0.00631 µM [falling, full curve, poor fit].
Turning to `COc1ccc(S(=O)(=O)N2CCN(c3ccc(C)cc3C)CC2)cc1OC`, the AC50 is 25.1 µM [falling, single point].
`COc1ccc(Oc2ncc3ncc(=O)n(CCC#N)c3n2)cc1`: the AC50 was 12.6 µM [rising, single point].
For `CCN(CCNC(=O)CS(=O)(=O)Cc1nc(-c2cccc(OC)c2)oc1C)c1ccccc1` the value was 12.6 µM [falling, partial curve].
For `COc1ccccc1-c1nc(C#N)c(N2CCC(Cc3ccccc3)CC2)o1` the value was 3.16 µM [rising, partial curve].
With `COc1ccc(-c2cc(NCc3ccccn3)n3ncnc3n2)cc1`, the AC50 was 0.794 µM [rising, partial curve].
Take `CN1/C(=C\P(=O)(N(C)C)N(C)C)C(C)(C)c2ccccc21`: the AC50 was 5.01 µM [falling, single point].
Then `Cc1ccc(C)c2[nH]c(=O)c(CCNC(=O)CC(C)(C)C)cc12`, with 10 µM [rising, partial curve].
Then `CCCn1c(N2CCN(CC(=O)c3c(C)n(C)c4ccccc34)CC2)nc2c1c(=O)[nH]c(=O)n2C`, with 6.31 µM [rising, partial curve]; and `O=C(Nc1ccccc1)N(Cc1ccc2c(c1)OCO2)Cc1nc2ccccc2c(=O)[nH]1`, with 5.01 µM [falling, single point].
Then `O=C(NC1CCSC1=O)c1ccc(Cl)cc1` (configuration not stated), with 1.26 µM [falling, partial curve]; and `NC(=O)C1CCN(C(=O)c2cc(S(=O)(=O)N3CCOCC3)c(Cl)cc2Cl)CC1`, with 12.6 µM [falling, single point].
As for `O=C(NCc1n[nH]c(=S)n1-c1cccc(Cl)c1)c1ccc(S(=O)(=O)N2CCCC2)cc1`, the AC50 is 0.126 µM [falling, full curve, poor fit].
For the compound `Cc1nc(N2CCN(Cc3ccc4c(c3)OCO4)CC2)nc2c1C(=O)CC(c1ccco1)C2` (configuration not stated), the AC50 was 1.26 µM [rising, full curve, poor fit].
On to `c1ccc(Nc2nc(-c3cccnc3)nc3ccccc23)cc1`, for which the AC50 was 5.01 µM [rising, full curve].
Turning to `O=C(Nc1cc(C(=O)N2CCCC2)ccc1N1CCCC1)c1ccccc1F`, the AC50 is 12.6 µM [falling, partial curve].
As for `CCC(C)(C)n1nnnc1C(c1cccc(C#N)c1)N1CCN(c2cc(C)ccc2C)CC1` (configuration not stated), the AC50 is 0.0794 µM [falling, single point].
For the compound `COc1ccc(NC(=O)N(CCC(C)C)C(C)c2ccccn2)c(OC)c1` (configuration not stated), the AC50 was 12.6 µM [rising, partial curve].
For `Oc1ccc(C=Nc2cccc3ncccc23)c(O)c1` the value was 25.1 µM [rising, single point].
Then `CCOC(=O)C1CCCN(C(=O)C2CCN(S(=O)(=O)CC)CC2)C1` (configuration not stated), with 0.316 µM [falling, single point].
With `Cn1c(=O)c(-c2cccc(F)c2)nc2cncnc21`, the AC50 is 10 µM [rising, partial curve].
With `CCOC(=O)c1[nH]c(C)c(C(=O)NC2CCN(C(=O)OCC)CC2)c1C`, the AC50 is 2.51 µM [rising, single point].
For `COc1cccc(-c2nn(C)c3sc(C(=O)NCc4ccccn4)cc23)c1` the value was 3.98 µM [rising, partial curve]; for `O=C(Cn1c2c(c(-c3ccccc3)cc1=O)CCCC2)N1CCCCCC1`, 20 µM [falling, single point].
Then `CCOc1ccc(OCC)c(NC(=O)CSc2nc3cccnc3n2C)c1`, with 2 µM [falling, partial curve].
Take `Cc1ccc(S(=O)(=O)N2CCC(C(=O)N3CCC(C(=O)NCc4cccnc4)CC3)CC2)cc1`: the AC50 is 12.6 µM [rising, partial curve].
Consider `O=C1CN(/N=C\c2ccc([N+](=O)[O-])o2)C(=O)N1`, for which the AC50 was 12.6 µM [falling, single point].
For `COC(=O)C1CCN(C(=O)CCCOc2ccccc2)CC1` the value was 0.631 µM [rising, full curve, poor fit].
Take `C=C(C)COc1ccc(-c2[nH]ncc2-c2ccccc2OC)c(O)c1`: the half-maximal activity concentration (AC50) is 3.98 µM [falling, partial curve].
Then `CCC(=O)N1CCc2cc(S(=O)(=O)NCCC(=O)N3CCc4ccccc4C3)ccc21`, with 0.0316 µM [falling, full curve].
Regarding `Cc1csc(=O)n1CCC(=O)O`, the AC50 is 15.8 µM [rising, single point].
For `COC(=O)c1ccc(CSc2ccc3nnc(-c4cccnc4)n3n2)o1` the value was 10 µM [rising, partial curve]; for `O=C(O)c1cccc2c1C(=O)N(Cc1ccncc1)C2`, 3.98 µM [falling, full curve]; for `CCOc1ccccc1N1CCN(C(=O)c2cc3c(s2)CCC3)CC1`, 3.16 µM [falling, full curve, poor fit].
Then `CCN(C(=O)c1cc2cc3ccc(C)cc3nc2o1)c1ccc(OC)cc1`, with 12.6 µM [rising, partial curve, poor fit].
Then `CC1=CC(=O)C2=C(C)CC[C@@H]3[C@H](OC(=O)[C@H]3C)[C@H]12`, with 0.0794 µM [rising, full curve, poor fit]; and `COC(=O)C(CC(=O)c1ccc(Br)cc1)n1ccnc1` (configuration not stated), with 15.8 µM [falling, partial curve]; and `Fc1ccc(-c2nc3nc4ccccc4nc3n2Cc2ccco2)cc1`, with 20 µM [rising, single point].
Take `Cc1noc(C)c1COc1cccc(C(=O)N2CCN(C/C=C/c3ccccc3)CC2)c1`: the AC50 was 0.00316 µM [falling, full curve, poor fit].
Then `CN(C)c1ncc2nc(-c3ccccc3)c(=O)n(C)c2n1`, with 7.94 µM [rising, partial curve].
For `COc1ccc(C)cc1N(CC(N)=O)S(=O)(=O)c1ccc(C)cc1` the value was 0.0158 µM [rising, single point].
Then `CCCOC(=O)Nc1ccc(S(=O)(=O)Nn2cnnc2)cc1`, with 0.251 µM [rising, partial curve].
In the case of `COC(=O)c1sc(NC(=O)c2cc3c(s2)CCCC3)nc1C`, the AC50 is 20 µM [falling, single point].
With `COC(=O)c1cn(-c2ccccc2)nc1C(=O)OC`, the AC50 was 10 µM [rising, partial curve].
With `CN1C(=O)C(O)(C2COC(C)(C)CC2=O)c2ccccc21` (configuration not stated), the AC50 was 0.00316 µM [falling, full curve, poor fit].
In the case of `CN1CCN(c2ncc3nc(-c4cccc(C#N)c4)c(=O)n(CCC#N)c3n2)CC1`, the AC50 was 10 µM [rising, partial curve].
In the case of `COc1ccc(-c2nc(CSCC(=O)N3CCN(C(=O)c4ccco4)CC3)c(C)o2)cc1OC`, the AC50 is 12.6 µM [rising, partial curve].
Then `CN(Cc1ccccc1)C(=O)CSc1nc2ccccc2c(=O)n1Cc1ccco1`, with 10 µM [rising, single point].
Then `CCOC(=O)C1CCN(C(=O)CN2C(=O)C(CC)Oc3ccccc32)CC1` (configuration not stated), with 0.398 µM [falling, single point]; and `Cc1cc(N2C(=O)C3C4c5ccccc5C(c5ccccc54)C3C2=O)no1` (configuration not stated), with 0.398 µM [rising, partial curve, poor fit].
Regarding `O=C(CSc1nc(-c2ccco2)cc(C(F)(F)F)n1)Nc1cccnc1`, the AC50 is 12.6 µM [rising, single point].
Then `CC(=O)Oc1ccc2c(C)c(CC(C)O)c(=O)oc2c1` (configuration not stated), with 10 µM [rising, partial curve].
As to `COc1ccccc1CNc1ncncc1-c1ccc(N(C)C)cc1`, the AC50 is 2 µM [falling, partial curve].
